Data as given in PubChem BioAssay AID1224826 (NIAID, 2016)
Test: 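Knock-downs that raise or lower Tnf reporter signal after endotoxin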 (primary screen). Cells: RAW264.7 G9 macrophages from mouse bearing reporters for p65 (GFP) and the Tnf promoter (mCherry). Reagents: siRNA pool against mouse genes, 100 nM. Timing: 16 h of LPS stimulation, after 2 days of siRNA transfection. Challenge: bacterial lipopolysaccharide (Salmonella minnesota R595), 10 ng/ml. Detection: 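Nuclear mCherry signal of the Tnf promoter reporter measured by imaging after background removal, scaled to each plate median and turned into robust z-scores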. Scale: Tnf reporter robust z-score: higher = stronger Tnf promoter reporter signal after LPS. Hit rule: 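Called active when robust z-score is at most -1.3, matching the median of the Tlr4 knock-down control, or over 3; control wells and wells with under 50 cells never active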. Meaning of the calls: active = Tnf reporter clearly lowered or raised; inactive = no clear change in Tnf reporter.
This is an unselected part of about 17,000 reagents. About 1,110 of all reagents (6.6%) count as active. 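Active means lowered or raised reporter signal; replicate intensities are raw and not normalised per plate.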 Some reagents were tested in more than one well and are listed for each. Further read-outs or replicates are left out here.

Knock-down of Ctrb1 came out at: Tnf reporter robust z-score -0.14; fewer than 50 cells in well enough cells in well; inactive.
Silencing of Or5w10 came out at: Tnf reporter robust z-score 0.8; fewer than 50 cells in well enough cells in well; inactive.
Pex16 scored Tnf reporter robust z-score 0.31; fewer than 50 cells in well enough cells in well; inactive.
Depletion of Or2p2 gave: Tnf reporter robust z-score 1.1; fewer than 50 cells in well enough cells in well; inactive.
Silencing of Tert resulted in: Tnf reporter robust z-score 1.05; fewer than 50 cells in well enough cells in well; inactive.
Ndrg2 gave Tnf reporter robust z-score 0.73; fewer than 50 cells in well enough cells in well; inactive.
Against Nr1h3, the values are Tnf reporter robust z-score -2.13; fewer than 50 cells in well enough cells in well; active.

Active calls, of those listed so far:
Nr1h3 — Tnf reporter robust z-score: -2.13; fewer than 50 cells in well: enough cells in well; Call: active

Next entries follow:
For Or4c118, the values are Tnf reporter robust z-score 1.37; fewer than 50 cells in well enough cells in well; inactive.
For 1700019M22Rik the deposit lists Tnf reporter robust z-score -0.12; fewer than 50 cells in well enough cells in well; inactive.
After knock-down of Parp8 the results were Tnf reporter robust z-score 0.68; fewer than 50 cells in well enough cells in well; inactive.
For Tcerg1l, the values are Tnf reporter robust z-score 0.55; fewer than 50 cells in well enough cells in well; inactive.
For Dnph1 the deposit lists Tnf reporter robust z-score 0.93; fewer than 50 cells in well enough cells in well; inactive.
Against Mup4, the values are Tnf reporter robust z-score -1.02; fewer than 50 cells in well enough cells in well; inactive.
Against Rassf8, the entry reads Tnf reporter robust z-score -1.28; fewer than 50 cells in well enough cells in well; inactive.
After knock-down of Dio1, the screen gave Tnf reporter robust z-score 1.58; fewer than 50 cells in well enough cells in well; inactive.
Gbp9 scored Tnf reporter robust z-score -1.36; fewer than 50 cells in well enough cells in well; active.
For Stk35, the values are Tnf reporter robust z-score 0.37; fewer than 50 cells in well enough cells in well; inactive.
With knock-down of Stk35, the record shows Tnf reporter robust z-score 1.94; fewer than 50 cells in well enough cells in well; inactive.
For Med6, the entry reads Tnf reporter robust z-score -0.24; fewer than 50 cells in well enough cells in well; inactive.
Against Wdr64, the entry reads fewer than 50 cells in well fewer than 50 cells per well; well left out of calls; inactive.
Knock-down of Ggt5 came out at: Tnf reporter robust z-score -0.14; fewer than 50 cells in well enough cells in well; inactive.
